These are yes or no findings as the source states them, for the method shown. A result given as binding can be weak or reduced; the word gives no strength.
Key:
[1] = biological target: truncated wild type EGFR 1-525 (EGFR1 (1-525)-SRGPF-Myc-NMHTG-6His) (human); assay: SPR (summary of FIG. 6)
[2] = biological target: EGFRvIII extracellular domain (EGFR (1-29)-G-(298-645)-LESRGPF-Myc-NMHTG-6His) (human); assay: SPR (Biacore T100)
[3] = biological target: truncated wild type EGFR 1-525 (EGFR1 (1-525)-SRGPF-Myc-NMHTG-6His) (human); assay: SPR (Biacore T100)

| binding [1] | binding [2] | binding [3] | Binder |
| --- | --- | --- | --- |
| binds | binds | binds | Antibody O (AbO) (antibody, V domains shown, Full length IgG1; also called Antibody 0) VH: EVQLQESGPGLVKPSQTLSLTCTVSGYSIGKDFAWNWIRQPPGKGLEWMGYISYNGNTRYQPSLKSRITISRDTSKNQFFLKLNSVTAADTATYYCVTASRGFPYWGQGTLVTVSS VL: DIQMTQSPSSMSVSVGDRVTITCHSSQDITYNVGWLQQKPGKSFKGLIYHGSNLDHGVPSRFSGSGSGTDYTLTISSLQPEDFATYYCVQYDDFPWTFGGGTKLEIK |
| binds | binds | binds | Antibody P (AbP) (antibody, V domains shown, Full length IgG1) VH: EVQLQESGPGLVKPSQTLSLTCTVSGYSISHDFAWNWIRQPPGKGLEWMGYISYSGNTRYQPSLKSRITISRDTSKNQFFLKLNSVTAADTATYYCVTASWGLPWWGQGTLVTVSS VL: DIQMTQSPSSMSVSVGDRVTITCHSSQDINMNVGWLQQKPGKSFKGLIYHGAILDDGVPSRFSGSGSGTDYTLTISSLQPEDFATYYCVQYAEFPWTFGGGTKLEIK |
| binds | binds | binds | Antibody M (AbM) (antibody, V domains shown, Full length IgG1) VH: EVQLQESGPGLVKPSQTLSLTCTVSGYSIGRDFAWNWIRQPPGKGLEWMGYISYNGNTRYQPSLKSRITISRDTSKNQFFLKLNSVTAADTATYYCVTASRGFPYWGQGTLVTVSS VL: DIQMTQSPSSMSVSVGDRVTITCHSSQDITYNVGWLQQKPGKSFKGLIYHGSNLDHGVPSRFSGSGSGTDYTLTISSLQPEDFATYYCVQYDDFPWTFGGGTKLEIK |

Second part, the binder before the results:

| Binder | binding [1] | binding [2] | binding [3] |
| --- | --- | --- | --- |
| Antibody N (AbN) (antibody, V domains shown, Full length IgG1) VH: EVQLQESGPGLVKPSQTLSLTCTVSGYSIGRDFAWNWIRQPPGKGLEWMGYISYSGNTRYQPSLKSRITISRDTSKNQFFLKLNSVTAADTATYYCVTASRGFPYWGQGTLVTVSS VL: DIQMTQSPSSMSVSVGDRVTITCHSSQDITYNVGWLQQKPGKSFKGLIYHGSNLDHGVPSRFSGSGSGTDYTLTISSLQPEDFATYYCVQYDDFPWTFGGGTKLEIK | binds | binds | binds |
| Antibody J (AbJ) (antibody, V domains shown, Full length IgG1) VH: EVQLQESGPGLVKPSQTLSLTCTVSGYSIGKDFAWNWIRQPPGKGLEWMGYISYSGNTRYQPSLKSRITISRDTSKNQFFLKLNSVTAADTATYYCVTASRGLPYWGQGTLVTVSS VL: DIQMTQSPSSMSVSVGDRVTITCHSSQDITYNIGWLQQKPGKSFKGLIYHGANLDDGVPSRFSGSGSGTDYTLTISSLQPEDFATYYCVQYDEFPWTFGGGTKLEIK | binds | binds | binds |
| Antibody L (AbL) (antibody, V domains shown, Full length IgG1) VH: EVQLQESGPGLVKPSQTLSLTCTVSGYSIGKDFAWNWIRQPPGKGLEWMGYISYNGNTRYQPSLKSRITISRDTSKNQFFLKLNSVTAADTATYYCVTASRGLPYWGQGTLVTVSS VL: DIQMTQSPSSMSVSVGDRVTITCHSSQDITYNVGWLQQKPGKSFKGLIYHGSNLDHGVPSRFSGSGSGTDYTLTISSLQPEDFATYYCVQYDDFPWTFGGGTKLEIK | binds | binds | binds |
| Antibody H (AbH) (antibody, V domains shown, Full length IgG1) VH: EVQLQESGPGLVKPSQTLSLTCTVSGYSIGKDFAWNWIRQPPGKGLEWMGYISYNGNTRYQPSLKSRITISRDTSKNQFFLKLNSVTAADTATYYCVTASRGLPYWGQGTLVTVSS VL: DIQMTQSPSSMSVSVGDRVTITCHSSQDITYNIGWLQQKPGKSFKGLIYHGANLDDGVPSRFSGSGSGTDYTLTISSLQPEDFATYYCVQYDEFPWTFGGGTKLEIK | binds | binds | binds |
| Antibody G (AbG) (antibody, V domains shown, Full length IgG1) VH: EVQLQESGPGLVKPSQTLSLTCTVSGYSISNDFAWNWIRQLPGKGLEWMGYISYKGNTRYQPSLKSRITISRDTSKNQFFLKLNSVTAADTATYYCVTASRGLPYWGQGTLVTVSS VL: DIQMTQSPSSMSVSVGDRVTITCHSSQDITYNIGWLQQKPGKSFKGLIYHGANLDDGVPSRFSGSGSGTDYTLTISSLQPEDFATYYCVQYDEFPWTFGGGTKLEIK | binds | binds | binds |
